Results as given in PMC7819943, “Rice protein-binding microarrays: a tool to detect cis-acting elements near promoter regions in rice”.
The other results are listed elsewhere or left out.

The chains behind the UniProt entries cited, without tags or fusion partners.
UniProt Q0JBA9, entry or part of it: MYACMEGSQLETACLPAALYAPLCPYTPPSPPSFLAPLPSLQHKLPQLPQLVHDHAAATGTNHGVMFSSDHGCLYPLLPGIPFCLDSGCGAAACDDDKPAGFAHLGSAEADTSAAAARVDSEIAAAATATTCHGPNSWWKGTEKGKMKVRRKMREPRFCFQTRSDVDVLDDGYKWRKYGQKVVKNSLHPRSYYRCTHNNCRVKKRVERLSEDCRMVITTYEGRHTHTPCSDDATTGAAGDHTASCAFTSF

Target: OsWRKY34 (Oryza sativa, UniProt Q0JBA9 1-250)
Assay: protein-binding microarray (RPBM); PBS, 2% BSA, 51.3 ng/ul salmon testes DNA, 50 uM zinc acetate, 200 nM TF, 25 C, 1 h; high values mean tight binding
Conditions: protein: recombinant; tags: N-terminal polyhistidine and DsRed monomer fusion (pET32a); label: CyDye5-dUTP incorporated in the synthesized complementary strand; 3' TTTTT single-stranded linker to array surface; dsDNA, one strand shown
Method in brief: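 Transcription factors were each fused at the N-terminus to a polyhistidine tag plus DsRed and expressed in E. coli BL21-CodonPlus before Ni–NTA purification. Binding to a double-stranded custom Agilent array was carried out with 200 nM protein at 25 °C for 1 h in PBS, 2% BSA, salmon testes DNA and 50 µM zinc acetate. The binding signal is per-feature fluorescence intensity, in arbitrary units, on an Axon 4000B scanner.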

Row | Sequence | binding signal
1 | GTGAGGGTGTGGTTACAGTGGGTTGGTTTTTTTTCTCCCCCGGAGTCACCTAGTGCAG | 11800 fluorescence intensity (a.u.)
2 | GTCCTTTTGCAGTGTTCAATAATTGCATGCCACCGAAATTCGGAGTCACCTAGTGCAG | 8040 fluorescence intensity (a.u.)
3 | ATTTTGAGTTTTTGATTGCAACGTTTGATCACTCGTCTTACGGAGTCACCTAGTGCAG | 8270 fluorescence intensity (a.u.)
4 | GTTCCATTTGTTTGGAGATCGACATTATACTTTCAGTTTTCGGAGTCACCTAGTGCAG | 8720 fluorescence intensity (a.u.)
5 | TCTGGTTCCATTTTCCACGCACAGGAGAGTGATTACTTTTCGGAGTCACCTAGTGCAG | 11200 fluorescence intensity (a.u.)
6 | TACCGTTTCTATTTCCACCACCGTCGATTATCGTTACTGACGGAGTCACCTAGTGCAG | 9040 fluorescence intensity (a.u.)
7 | CTAGCTTAATCTTTCTTCGTTGTTCTACATCCTGCTAGTTCGGAGTCACCTAGTGCAG | 9860 fluorescence intensity (a.u.)
8 | GACTCGTTAACCACATGTTTTGCACAATGTCACAAGCCATCGGAGTCACCTAGTGCAG | 8940 fluorescence intensity (a.u.)
9 | TACCCTTATACCCTTTTTTTTTGTTATATCAATATATAGACGGAGTCACCTAGTGCAG | 8380 fluorescence intensity (a.u.)
10 | TTCTCCCTGGAGTACTGGATTCACCCATCCACCTCGTCGACGGAGTCACCTAGTGCAG | 8490 fluorescence intensity (a.u.)
11 | CCTCACTCTCGTGGGCTCACCACCTCACCTCGCTATAAGTCGGAGTCACCTAGTGCAG | 10200 fluorescence intensity (a.u.)
12 | CATAACTCCTGTTTTAACCCGCCGCTGATCGCGAGAGTCCCGGAGTCACCTAGTGCAG | 9300 fluorescence intensity (a.u.)
13 | ATGGTGGCCGGCCGGGTGAGGAAGGTGGTGGTGGCGTCGACGGAGTCACCTAGTGCAG | 8720 fluorescence intensity (a.u.)
14 | ATCTCTTATACCACTGTCTAGGTGACTGCTTCAACCCATACGGAGTCACCTAGTGCAG | 8110 fluorescence intensity (a.u.)
15 | TCTTTGGCTTCTCGTCTACATCGCGTCTAGCTTATAGATACGGAGTCACCTAGTGCAG | 10500 fluorescence intensity (a.u.)
16 | GTTGAAGGGGAGCGGGGAGATCGGGGACGGGAGGGACGGCCGGAGTCACCTAGTGCAG | 8210 fluorescence intensity (a.u.)
17 | CTGTTGTGCAGTCATCCTTCTCCCGGTCTATATCTTCACACGGAGTCACCTAGTGCAG | 8400 fluorescence intensity (a.u.)
18 | CTCTAATATAAGGGATTTTGACATTTTACTTACACTGTTTCGGAGTCACCTAGTGCAG | 9280 fluorescence intensity (a.u.)
19 | CTTTTTGTTTTGGCCTTGACGTCGTGTTCACCGCCTCTACCGGAGTCACCTAGTGCAG | 11800 fluorescence intensity (a.u.)
20 | GGTGTGAGGGTGCTCGTATTTACGGCTAATTATTTTTTTACGGAGTCACCTAGTGCAG | 10300 fluorescence intensity (a.u.)
21 | TTTAAAAAAGTCAACGGCGTTGGGATGGAGGTAGTACCATCGGAGTCACCTAGTGCAG | 10000 fluorescence intensity (a.u.)

At a glance, part of the list above:
Row | Sequence | binding signal
9 | TACCCTTATACCCTTTTTTTTTGTTATATCAATATATAGACGGAGTCACCTAGTGCAG | 8380 fluorescence intensity (a.u.)
10 | TTCTCCCTGGAGTACTGGATTCACCCATCCACCTCGTCGACGGAGTCACCTAGTGCAG | 8490 fluorescence intensity (a.u.)

Remaining list, next part:

Row | Sequence | binding signal
22 | CCCTTCCCTCGCTGCAGCAAATACACTTCGCGAGATCCTCCGGAGTCACCTAGTGCAG | 8440 fluorescence intensity (a.u.)
23 | ATTGAGTCGTGTATCGCAGCTGTAGTATTTTTCCCCGACACGGAGTCACCTAGTGCAG | 8630 fluorescence intensity (a.u.)
24 | GATTTGCACAGACATGTTTCCGTTTGTATTGTTCAGTTTTCGGAGTCACCTAGTGCAG | 8500 fluorescence intensity (a.u.)
25 | GATGAGGCGGGGTGCGCGCACGGCAGTTTGGATGATTTTTCGGAGTCACCTAGTGCAG | 8370 fluorescence intensity (a.u.)
26 | TTAAAAAACATTGTACCACAAGTAGCAACAAATTAATGCTCGGAGTCACCTAGTGCAG | 26900 fluorescence intensity (a.u.)
27 | GCTCCCATCCACACCCGCAACCACCTCGCTCGCTAAAAATCGGAGTCACCTAGTGCAG | 8370 fluorescence intensity (a.u.)
28 | AGGAGCCTTTATTGCTGTTTTTTTTCTCTCTTCCTTGCTCCGGAGTCACCTAGTGCAG | 11300 fluorescence intensity (a.u.)
29 | GTTGCATTTGCCGCTGCGACACGGACCCCGCCTTAATAACCGGAGTCACCTAGTGCAG | 9020 fluorescence intensity (a.u.)
30 | CCGCCGTCTTCGTCCGCATCCGGGTCAAATCAAATCGAGACGGAGTCACCTAGTGCAG | 8540 fluorescence intensity (a.u.)
31 | CTACCCATTTATTTAAGCTTAGACTTTTCTGCTCCTAAACCGGAGTCACCTAGTGCAG | 10100 fluorescence intensity (a.u.)
32 | CCCACTGCCTCGCTGCTGACCTCGTGGCTTTGTTGGCCTCCGGAGTCACCTAGTGCAG | 8450 fluorescence intensity (a.u.)
33 | GTAGATGTCGGGTGGGATGGTTTCAGGAAAAGAAACATGACGGAGTCACCTAGTGCAG | 12800 fluorescence intensity (a.u.)
34 | GTACCACCGAGCTTCTCTAACTTCACTGGATCCCAAATTCCGGAGTCACCTAGTGCAG | 9660 fluorescence intensity (a.u.)
35 | GCACGGGTGACCAGTTGTACTCCCCGCTTCACCTGCATCTCGGAGTCACCTAGTGCAG | 8230 fluorescence intensity (a.u.)
36 | CATTCAGCCGACACGCCTCTCTCTCTCTCTCCGCTGCTGCCGGAGTCACCTAGTGCAG | 9060 fluorescence intensity (a.u.)
37 | ATTGCGAATTTTTTGAATTGCCGAGCTCCGACCACGCCTACGGAGTCACCTAGTGCAG | 8040 fluorescence intensity (a.u.)
38 | CTCTCCTAGTTTCATATTATAAGTTACTTTTATTTTTTTCCGGAGTCACCTAGTGCAG | 9650 fluorescence intensity (a.u.)
39 | GTTTGTAACGTATTTTAGCTCGCTTTATAACGGGGCAGTTCGGAGTCACCTAGTGCAG | 8160 fluorescence intensity (a.u.)
40 | TCGACCATTCTCGTGTGATTCTTCAAATTTGATCCTGCCACGGAGTCACCTAGTGCAG | 9950 fluorescence intensity (a.u.)
41 | CTTTTGGCTATGAATTTGGTTTATATTTTGGGACGGAGGGCGGAGTCACCTAGTGCAG | 9880 fluorescence intensity (a.u.)
42 | ACCACACCGGGTGTCACCTCAAAGTACAGTTTCCTCTTTTCGGAGTCACCTAGTGCAG | 8560 fluorescence intensity (a.u.)
